Measurements reported in PubChem BioAssay AID1259405 (NCATS, 2018)
In all, the deposit lists about 50,000 reagents; this is a part drawn at random. In the full data, about 4,000 (8%) are marked active. 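Mouse siRNA library applied to hamster cells; one well for each siRNA.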 Entries without a mark were called inactive.

Test: 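Silenced genes that increase secreted GFP made by CHO cells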 (primary screen)
System: Chinese hamster CHO-K1 ovary cells with stable secreted eGFP expression
Reagent: single siRNA against mouse genes, 0.8 pmol siRNA per well (2 µl of 400 nM stock)
Timing: 3 days
Detection: 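Per-well intracellular GFP measured by laser scanning cytometry, plus viability from ATP luminescence, each relative to plate median of non-targeting control wells, in %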
Reading the numbers: GFP, % of control: higher = more GFP per well, higher productivity; viability (ATP), % of control: higher = more viable cells (more ATP)
Rule for the call: 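Called active when intracellular GFP, relative to negative control, is at or above 120%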

"GFP, % of control","viability (ATP), % of control",target gene,PubChem SID
77.3,36.5,Polr1g (RNA polymerase I subunit G),SID363543741
96,62.2,Polr1g (RNA polymerase I subunit G),SID363551477
93,81.4,Polr1g (RNA polymerase I subunit G),SID363559082
76.8,75.3,Vmn1r8 (vomeronasal 1 receptor 8),SID363556714
84.7,75,Vmn1r8 (vomeronasal 1 receptor 8),SID363563618
86.5,103,Vmn1r8 (vomeronasal 1 receptor 8),SID363587164
167 (active),82.3,"Ppm1b (protein phosphatase 1B, magnesium dependent, beta isoform)",SID363547566
87.9,62.4,"Ppm1b (protein phosphatase 1B, magnesium dependent, beta isoform)",SID363558335
70.5,81.2,"Ppm1b (protein phosphatase 1B, magnesium dependent, beta isoform)",SID363560093
57.9,82.5,Tpp2 (tripeptidyl peptidase II),SID363574528
53.4,63.2,Tpp2 (tripeptidyl peptidase II),SID363575584
80,93.3,Tpp2 (tripeptidyl peptidase II),SID363580160
71,65.5,Vip (vasoactive intestinal polypeptide),SID363541921
68.5,69.4,Vip (vasoactive intestinal polypeptide),SID363553513
109,51.8,Vip (vasoactive intestinal polypeptide),SID363566837
50.8,96.4,Zfp59 (zinc finger protein 59),SID363541028
78.1,83.5,Zfp59 (zinc finger protein 59),SID363555655
57.1,86.1,Zfp59 (zinc finger protein 59),SID363565944

Entries above whose gene name starts with V or v:
"GFP, % of control","viability (ATP), % of control",target gene,PubChem SID
76.8,75.3,Vmn1r8 (vomeronasal 1 receptor 8),SID363556714
84.7,75,Vmn1r8 (vomeronasal 1 receptor 8),SID363563618
86.5,103,Vmn1r8 (vomeronasal 1 receptor 8),SID363587164
71,65.5,Vip (vasoactive intestinal polypeptide),SID363541921
68.5,69.4,Vip (vasoactive intestinal polypeptide),SID363553513
109,51.8,Vip (vasoactive intestinal polypeptide),SID363566837

Next records follow:
"GFP, % of control","viability (ATP), % of control",target gene,PubChem SID
70.4,79.3,"Vezt (vezatin, adherens junctions transmembrane protein)",SID363546524
74.4,83,"Vezt (vezatin, adherens junctions transmembrane protein)",SID363548280
47.4,53.4,"Vezt (vezatin, adherens junctions transmembrane protein)",SID363560458
72.8,63.8,Cldn23 (claudin 23),SID363572567
100,90.2,Cldn23 (claudin 23),SID363577847
76.7,84.6,Cldn23 (claudin 23),SID363582071
113,101,Colgalt2 (collagen beta(1-O)galactosyltransferase 2),SID363546672
111,125,Colgalt2 (collagen beta(1-O)galactosyltransferase 2),SID363548428
47.4,48.6,Colgalt2 (collagen beta(1-O)galactosyltransferase 2),SID363560606
79.5,86,Cdh3 (cadherin 3),SID363572981
70,51.7,Cdh3 (cadherin 3),SID363577557
120 (active),86.5,Cdh3 (cadherin 3),SID363581077
141 (active),104,Clca2 (chloride channel accessory 2),SID363574382
57.9,47.3,Clca2 (chloride channel accessory 2),SID363575438
96.8,63,Clca2 (chloride channel accessory 2),SID363580014
72.7,85.7,Ndufs6 (NADH:ubiquinone oxidoreductase core subunit S6),SID363572951
112,95.1,Ndufs6 (NADH:ubiquinone oxidoreductase core subunit S6),SID363577527
87.6,55.2,Ndufs6 (NADH:ubiquinone oxidoreductase core subunit S6),SID363581047
